Results taken from patent US20200172626A1.
Results are given in words; binding and its absence hold for the method and conditions named. Some results given as binding are weak or reduced against the parent protein; the word gives no strength.

Chains of the proteins cited; added tags and fusions are not shown. Lines headed by an entry give the natural chain unless they say otherwise; changes in a name come on top.
UniProt Q07011: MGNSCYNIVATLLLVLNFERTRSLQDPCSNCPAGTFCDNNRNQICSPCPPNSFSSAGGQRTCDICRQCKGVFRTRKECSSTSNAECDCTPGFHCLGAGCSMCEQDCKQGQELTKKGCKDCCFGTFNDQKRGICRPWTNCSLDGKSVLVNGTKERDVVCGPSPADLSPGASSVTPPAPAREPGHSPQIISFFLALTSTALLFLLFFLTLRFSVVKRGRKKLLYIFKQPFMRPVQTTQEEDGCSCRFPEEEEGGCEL

Assays:
[1] = molecular target: histidine-tagged 4-1BB extracellular domain recombinant protein (H4-1BB) (human) (UniProt Q07011); experiment: ELISA on plates coated with histidine-tagged 4-1BB ECD
[2] = molecular target: human 4-1BB antigen (H4-1BB) (human) (UniProt Q07011); experiment: SPR (Biacore 3000, CM5), antibody captured on anti-human IgG, H4-1BB antigen in flow; the numbers stand only in FIG. 5
[3] = molecular target: histidine-tagged 4-1BB extracellular domain recombinant protein (H4-1BB) (human) (UniProt Q07011); experiment: ELISA on plates coated with histidine-tagged recombinant 4-1BB extracellular domain, HRP-labelled anti-human IgG; y axis printed as Absorbance (410nm)

binding [1]: binds
binding [2]: binds
binding [3]: binds
B1: 94G1 reference humanized anti-human 4-1BB antibody (antibody, V domains shown)
VH: QVQLQQSGAEVKKPGASVKLSCKASGYTFSSYWMHWVRQAPGQGLEWIGEINPGNGHTNYNEKFKSRATMTRDTSTSTAYMELSSLRSEDSAVYYCARSFTTARAFAYWGQGTLVTVSS
VL: DIVMTQSPAFLSVTPGEKVTITCRASQTISDYLHWYQQKPDQAPKLLIKYASQSISGIPSRFSGSGSGTDFTFTISSLEAEDAATYYCQDGHSFPPTFGQGTKLEIK
